Results from publication PMC12519287.
Numbering of substitutions follows the chain as printed. These are yes or no findings as the source states them, for the method shown. Binding seen in cells or lysates may run through a third protein. Some binding calls cover weakened binding; strength is not graded here. For some of these results: Sequences can lack the tags named with a protein. Each block holds one molecule with its values, some of them ahead of it.

Key:
[1] = biological target: T1, FLAG-PPP1R21 FL (full-length protein phosphatase 1 regulatory subunit 21 with a FLAG tag) (human) (UniProt Q6ZMI0); experiment: co-IP; HEK293T cells cotransfected with full-length or truncated FLAG-PPP1R21 along with Myc-PP1cs and HA-AEG-1 for 48 h; whole-cell lysates (0.5% CHAPS lysis buffer); IP with the anti-FLAG antibody; immunoblotting with anti-Myc and anti-HA
T1 sequence: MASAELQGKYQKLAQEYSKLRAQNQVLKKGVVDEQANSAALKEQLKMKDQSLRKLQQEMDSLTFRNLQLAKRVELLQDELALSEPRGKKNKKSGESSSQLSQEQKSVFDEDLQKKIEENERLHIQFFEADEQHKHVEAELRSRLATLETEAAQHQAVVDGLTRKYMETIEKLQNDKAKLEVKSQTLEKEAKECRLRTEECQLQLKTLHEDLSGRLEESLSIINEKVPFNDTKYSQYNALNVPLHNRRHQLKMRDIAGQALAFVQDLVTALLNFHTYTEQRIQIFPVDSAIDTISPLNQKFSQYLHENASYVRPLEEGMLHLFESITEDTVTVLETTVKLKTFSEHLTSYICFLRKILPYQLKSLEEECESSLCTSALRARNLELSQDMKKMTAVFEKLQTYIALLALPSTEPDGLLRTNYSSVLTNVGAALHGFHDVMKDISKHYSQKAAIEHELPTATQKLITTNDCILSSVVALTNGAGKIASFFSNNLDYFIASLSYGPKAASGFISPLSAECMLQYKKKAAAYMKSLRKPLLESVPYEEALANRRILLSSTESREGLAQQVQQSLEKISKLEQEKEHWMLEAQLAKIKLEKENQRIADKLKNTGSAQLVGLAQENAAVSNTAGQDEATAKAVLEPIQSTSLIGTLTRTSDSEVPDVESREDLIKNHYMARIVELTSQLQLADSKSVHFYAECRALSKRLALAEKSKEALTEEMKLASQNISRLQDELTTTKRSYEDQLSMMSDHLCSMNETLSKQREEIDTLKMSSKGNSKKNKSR

[2] = biological target: T2, HA-AEG-1 WT (astrocyte elevated gene-1, HA-tagged) (human) (UniProt Q86UE4); experiment: co-IP; HEK293T cells transfected with HA-AEG-1 or FLAG-PPP1R21 plasmids for 48 h; whole-cell lysates (0.5% CHAPS lysis buffer); IP with anti-HA or anti-FLAG; endogenous partner detected by Western blotting
T2 sequence: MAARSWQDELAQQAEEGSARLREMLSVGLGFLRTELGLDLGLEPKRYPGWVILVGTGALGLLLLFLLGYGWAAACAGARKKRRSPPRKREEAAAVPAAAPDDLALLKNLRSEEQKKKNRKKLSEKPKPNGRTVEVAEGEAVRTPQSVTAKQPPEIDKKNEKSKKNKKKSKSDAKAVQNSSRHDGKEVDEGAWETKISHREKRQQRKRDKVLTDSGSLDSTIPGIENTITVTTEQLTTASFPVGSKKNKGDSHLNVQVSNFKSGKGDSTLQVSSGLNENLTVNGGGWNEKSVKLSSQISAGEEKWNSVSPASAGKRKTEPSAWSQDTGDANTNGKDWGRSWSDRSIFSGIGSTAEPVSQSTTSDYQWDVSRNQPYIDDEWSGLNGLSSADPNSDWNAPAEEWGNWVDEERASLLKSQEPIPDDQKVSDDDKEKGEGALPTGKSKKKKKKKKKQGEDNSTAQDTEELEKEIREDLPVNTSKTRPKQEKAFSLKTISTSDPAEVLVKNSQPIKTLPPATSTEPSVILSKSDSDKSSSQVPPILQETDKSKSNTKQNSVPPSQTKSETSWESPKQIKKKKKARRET

[3] = biological target: T3, endogenous AEG-1 (BGC823) (human (endogenous in BGC823)) (UniProt Q86UE4); experiment: co-IP; BGC823 cells, treated with 100 ng/ml CXCL12 for 24 h or not; whole-cell lysates (0.5% CHAPS lysis buffer); IP with the anti-AEG-1 antibody; both proteins endogenous; Western blotting
T3 sequence: T2 sequence

[4] = biological target: T4, AEG-1 WT with HA tag, stably expressed in BGC823 (human) (UniProt Q86UE4); experiment: co-IP; BGC823 cells stably expressing AEG-1 WT or S308/426D (with HA tag), cultured for 24 h; whole-cell lysates (0.5% CHAPS lysis buffer); IP with the anti-HA antibody; Western blotting
T4 sequence: T2 sequence

[5] = biological target: T5, AEG-1 S308/426D double mutant with HA tag, stably expressed in BGC823 (human) (UniProt Q86UE4); experiment: as above
T5 sequence: T2 sequence with S308D, S426D

[6] = biological target: T1, FLAG-PPP1R21 FL (full-length protein phosphatase 1 regulatory subunit 21 with a FLAG tag) (human); experiment: co-IP; HEK293T cells transfected with HA-AEG-1 or FLAG-PPP1R21 plasmids for 48 h; whole-cell lysates (0.5% CHAPS lysis buffer); IP with anti-HA or anti-FLAG; endogenous partner detected by Western blotting

- binding [1]: binds
Molecule: Myc-PP1cs (Myc-tagged protein phosphatase 1 catalytic subunit) (from UniProt P62136-1 1-330) (enzyme)

- binding [3]: binds
- binding [4]: binds
- binding [5]: binds
B2: endogenous PPP1R21 (BGC823) (protein, UniProt Q6ZMI0 1-780)
chain: T1 sequence

More lines, now with the values behind:

B1: endogenous PPP1R21 (HEK293T) (protein, UniProt Q6ZMI0 1-780)
chain: T1 sequence
- binding [2]: binds

B3: endogenous AEG-1 (HEK293T) (protein, UniProt Q86UE4 1-582)
chain: T2 sequence
- binding [6]: binds

B4: HA-AEG-1 WT (astrocyte elevated gene-1, HA-tagged) (protein, UniProt Q86UE4 1-582)
chain: T2 sequence
- binding [1]: binds
